Laboratory results as given in patent US20260167727A1 (FIBRO BIOMED TECHNOLOGY GUANGZHOU, published 2026).
Residue numbers refer to the chain shown, from its start. Results are given in words; binding and its absence hold for the method and conditions named. Some binding calls cover weakened binding; strength is not graded here.

T1: human DDR2 extracellular segment (human, UniProt Q16832 22-399)
T1 construct: range 22-399; In BLI it carried a His tag (printed 'Hig tag') and was captured on Ni-NTA; also called extracellular segment of DDR2 antigen; extracellular segment protein of DDR2 antigen
T1 sequence (looked up): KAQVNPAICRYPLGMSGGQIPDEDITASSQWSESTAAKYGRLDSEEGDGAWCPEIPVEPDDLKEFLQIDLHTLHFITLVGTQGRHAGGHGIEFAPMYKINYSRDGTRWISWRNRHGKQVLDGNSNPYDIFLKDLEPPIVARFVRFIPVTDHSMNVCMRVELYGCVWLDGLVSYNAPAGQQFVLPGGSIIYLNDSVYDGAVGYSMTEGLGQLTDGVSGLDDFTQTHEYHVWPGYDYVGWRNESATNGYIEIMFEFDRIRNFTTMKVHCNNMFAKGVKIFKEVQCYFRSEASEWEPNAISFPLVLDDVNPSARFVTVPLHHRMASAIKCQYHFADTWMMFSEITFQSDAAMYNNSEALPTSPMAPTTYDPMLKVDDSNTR

T2: DDR2 antigen overexpressed on cells (UniProt Q16832)
T2 sequence (looked up): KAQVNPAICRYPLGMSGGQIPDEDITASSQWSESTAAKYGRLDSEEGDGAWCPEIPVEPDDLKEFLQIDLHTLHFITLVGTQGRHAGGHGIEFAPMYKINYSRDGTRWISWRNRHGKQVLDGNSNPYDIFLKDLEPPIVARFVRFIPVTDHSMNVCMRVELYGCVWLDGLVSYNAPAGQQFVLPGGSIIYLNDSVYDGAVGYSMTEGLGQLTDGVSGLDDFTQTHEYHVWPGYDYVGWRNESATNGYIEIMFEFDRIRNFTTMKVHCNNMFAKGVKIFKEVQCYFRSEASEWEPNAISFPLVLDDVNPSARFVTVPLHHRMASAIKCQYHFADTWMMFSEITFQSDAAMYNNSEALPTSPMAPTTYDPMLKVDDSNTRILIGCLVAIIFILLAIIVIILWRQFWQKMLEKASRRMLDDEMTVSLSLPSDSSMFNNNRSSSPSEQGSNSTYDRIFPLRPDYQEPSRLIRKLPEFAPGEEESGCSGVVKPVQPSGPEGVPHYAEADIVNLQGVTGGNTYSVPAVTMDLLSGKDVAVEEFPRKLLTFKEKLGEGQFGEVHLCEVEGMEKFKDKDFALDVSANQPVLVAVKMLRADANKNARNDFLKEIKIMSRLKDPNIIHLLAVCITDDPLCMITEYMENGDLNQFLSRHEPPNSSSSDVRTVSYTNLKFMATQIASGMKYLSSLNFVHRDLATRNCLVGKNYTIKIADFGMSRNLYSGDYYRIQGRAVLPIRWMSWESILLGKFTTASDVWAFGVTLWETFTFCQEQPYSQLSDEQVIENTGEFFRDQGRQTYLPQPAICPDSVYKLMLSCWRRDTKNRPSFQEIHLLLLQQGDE

B1: anti-DDR2 nano-antibody 1B2 (VHH)
VHH: EVQLVESGGGLVQPGGSLRLSCAASGYIFSIYAMGWFRQAPGKGRELVARISWGDGSTWYPDSVEGRFTISRDNAKRMVYLQMNSLRAEDTAVYYCAAAIKGRGVVTQLGYNYWGQGTQVTVSS
notes: also called 1B2-VHH
B2: anti-DDR2 nano-antibody 1A1 (VHH)
VHH: EVQLVESGGGLVQPGGSLRLSCAASGRIFSINVMGWFRQAPGKGRELVAAINTRGGSTYYPDSVEGRFTISRDNAKRMVYLQMNSLRAEDTAVYYCAASRKGYPSTRSDPYDYWGQGTQVTVSS
notes: Expressed in E. coli BL21(DE3); also called 1A1-VHH
B3: anti-DDR2 nano-antibody 1A12 (VHH)
VHH: B2 VHH with R27Y, F29L, I31P, N52S, T53W, R54G, G55D, S57R, D112N
notes: also called 1A12-VHH; DDR2 antibody 1A12
B4: anti-DDR2 nano-antibody 1A5 (VHH)
VHH: EVQLVESGGGLVQPGGSLRLSCAASGITLSLYIMGWFRQAPGKGRELVAAISRTGGSTYYPDSVEGRFTISRDNAKRMVYLQMNSLRAEDTAVYYCAADFYGNATLGYNYWGQGTQVTVSS
notes: also called 1A5-VHH
B5: anti-DDR2 nano-antibody 1B3 (VHH)
VHH: B4 VHH with I27D, L29F, L31Y, I33V, F100P, G102I, N103S, A104G
notes: also called 1B3-VHH
B6: ICG labeled DDR2 nano-antibody 1A12 (VHH)
VHH: B2 VHH with R27Y, F29L, I31P, N52S, T53W, R54G, G55D, S57R, D112N
modifications: indocyanine green (ICG) coupled with ICG-NHS; sites not stated
notes: also called ICG labeled 1A12 nano-antibody; Nb-DDR2 labeled with indocyanine green

Biological target: T1, human DDR2 extracellular segment
Test: BLI (ForteBio), His-tagged DDR2 extracellular segment on Ni-NTA sensor, nano-antibody in solution

binding | Binder
binds | B1
binds | B2
binds | B3
binds | B4
binds | B5

Biological target: T1, human DDR2 extracellular segment
Test: ELISA, DDR2 extracellular segment coated 100 ng/well, Flag-tagged nano-antibody 200 ng/well, anti-Flag detection

binding | Binder
binds | B1
binds | B2
binds | B3
binds | B4
binds | B5

Biological target: T1, human DDR2 extracellular segment
Test: ELISA, DDR2 extracellular segment coated, Flag-tagged nano-antibody

binding | Binder
binds | B1
binds | B2
binds | B3
binds | B4
binds | B5

Biological target: T2, DDR2 antigen overexpressed on cells
Test: flow cytometry on A549 cells overexpressing DDR2, His-tagged nano-antibody, anti-His-AF488 secondary

binding | Binder
binds | B1
binds | B2
binds | B3

Biological target: T2, DDR2 antigen overexpressed on cells
Test: immunofluorescence on fixed cells overexpressing DDR2, anti-His AF488 secondary, DAPI

binding | Binder
binds | B2
binds | B3
binds | B4

Biological target: pig DDR2 in lung tissue (pig)
Test: near-infrared imaging of pig lung tissue slices induced with bleomycin and stained with ICG labeled 1A12

binding | Binder
binds | B6

Biological target: pig DDR2 in lung tissue (pig)
Test: near-infrared imaging of bleomycin-induced pig lung tissue slices stained with ICG labeled 1A12

binding | Binder
binds | B6

Biological target: T2, DDR2 antigen overexpressed on cells
Test: flow cytometry, A549 cells infected with adenovirus overexpressing DDR2, His-tagged nano-antibody, Anti-His-AF488

binding | Binder
binds | B1
binds | B2
binds | B3
binds | B4
binds | B5

Biological target: T2, DDR2 antigen overexpressed on cells
Test: immunofluorescence on fixed cells overexpressing DDR2, Anti His AF488 secondary antibody

binding | Binder
binds | B1
binds | B2
binds | B3
binds | B4
binds | B5

Biological target: T1, human DDR2 extracellular segment
Test: ELISA at one antibody amount, wells coated with antigen-DDR2 or BSA, OD450

binding | Binder
binds | B1
binds | B2
binds | B3
binds | B4
binds | B5

Biological target: T1, human DDR2 extracellular segment
Test: ELISA, plate coated with DDR2 extracellular segment, Flag-tagged nano-antibody titrated, anti-Flag then HRP secondary, TMB, OD450

binding | Binder
binds | B1
binds | B2
binds | B3
binds | B4
binds | B5
